Values of other authors in patent US20230126411A1, “DEUTERIUM MAGNETIC RESONANCE IMAGING” (University of Florida Research Foundation, Inc., priority 2020, published 2023).

Conditions: De Feyter et al., cited from earlier work

For `OCC1OC(O)C(O)C(O)C1O` (centres unmarked) [[6,6-^2H2]glucose], the “loss of 2H atoms for 2H-lactate” value ([6,6-2H2]glucose as tracer) is listed as ~8% and the “maximum share of HDO generation due to keto-enol tautomerization” value ([6,6-2H2]glucose) is listed as ≤ 8%.
